Data from article PMC8632694 (Frontiers in Pharmacology, 2021).

Key:
[1] = Steady-state plasma pharmacokinetics of atorvastatin, 2-hydroxyatorvastatin and atorvastatin lactone after atorvastatin 40 mg once daily for 7 days, alone or co-administered with tegoprazan 50 mg or vonoprazan 20 mg
[2] = after loss in the gut; ref Lennernäs, 2003; cited from earlier work

CC(C)c1c(C(=O)Nc2ccccc2)c(-c2ccccc2)c(-c2ccc(F)cc2)n1CC[C@@H](O)C[C@@H](O)CC(=O)O [Atorvastatin, atorvastatin]
Increase of AUCτ ([1]; atorvastatin co-administered with tegoprazan, not statistically significant): 3% | Increase of AUCτ ([1]; atorvastatin co-administered with vonoprazan compared to atorvastatin alone): 28% | within-subject CV of AUCτ ([1]; this study, multiple doses for 7 days (data not shown)): 11% | fraction of the remaining amount lost in the liver [2]: 42%
